## Drug screen on melanoma cell lines: apoptosis marker

Source: doi:10.1371/journal.pone.0140310, primary screening data, rounded.

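Human melanoma cell lines in 1,536-well plates were treated with a pair of drugs for 72 h, then fixed, stained and imaged. Each value is the cleaved-PARP-positive fraction of nuclei relative to DMSO-treated wells, in %, so that 100 equals the control and higher values mean more apoptosis. Concentrations were fixed for each drug; these are the higher of two levels. No replicate spread is given; individual values may be noisy. The marker varies much from line to line, for technical or biological reasons.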
Only some of the drugs and lines screened are listed, without regard to their results.
A dash means that no value is listed here.

Every entry is a combination with CX-4945 at 2 µM: O=C(O)c1ccc2c(c1)nc(Nc1cccc(Cl)c1)c1ccncc12

Compounds and concentrations:
LFM-A13 (10 µM): C/C(O)=C(\C#N)C(=O)Nc1cc(Br)ccc1Br
MK-2206 (2 µM): NC1(c2ccc(-c3nc4ccn5c(=O)[nH]nc5c4cc3-c3ccccc3)cc2)CCC1
lestaurtinib (0.02 µM): C[C@]12O[C@H](C[C@]1(O)CO)n1c3ccccc3c3c4c(c5c6ccccc6n2c5c31)CNC4=O
nutlin-3 (0.5 µM): COc1ccc(C2=N[C@@H](c3ccc(Cl)cc3)[C@@H](c3ccc(Cl)cc3)N2C(=O)N2CCNC(=O)C2)c(OC(C)C)c1
lenalidomide (5 µM): Nc1cccc2c1CN(C1CCC(=O)NC1=O)C2=O (configuration not stated)
etoposide (0.1 µM): COc1cc([C@@H]2c3cc4c(cc3[C@@H](O[C@@H]3O[C@@H]5CO[C@@H](C)O[C@H]5[C@H](O)[C@H]3O)[C@H]3COC(=O)[C@H]23)OCO4)cc(OC)c1O
NVP-TAE684 (0.4 µM): COc1cc(N2CCC(N3CCN(C)CC3)CC2)ccc1Nc1ncc(Cl)c(Nc2ccccc2S(=O)(=O)C(C)C)n1
BI-D1870 (1 µM): CC(C)CCN1c2nc(Nc3cc(F)c(O)c(F)c3)ncc2N(C)C(=O)C1C (configuration not stated)
stibogluconate (10 µM): O=C(O)[C@@H]1[O][Sb](=[O])([O][Sb]2(=[O])[O][C@H]([C@H](O)CO)[C@H](O)[C@H](C(=O)O)[O]2)[O][C@H]([C@H](O)CO)[C@@H]1O (some centres not stated)
sunitinib (2 µM): CCN(CC)CCNC(=O)c1c(C)[nH]c(/C=C2\C(=O)Nc3ccc(F)cc32)c1C
PD173074 (0.5 µM): CCN(CC)CCCCNc1ncc2cc(-c3cc(OC)cc(OC)c3)c(NC(=O)NC(C)(C)C)nc2n1
tozasertib (0.03 µM): Cc1cc(Nc2cc(N3CCN(C)CC3)nc(Sc3ccc(NC(=O)C4CC4)cc3)n2)n[nH]1
bortezomib (0.005 µM): CC(C)C[C@H](NC(=O)[C@H](Cc1ccccc1)NC(=O)c1cnccn1)B(O)O
perifosine (2 µM): CCCCCCCCCCCCCCCCCCOP(=O)([O-])OC1CC[N+](C)(C)CC1
JZL184 (5 µM): O=C(Oc1ccc([N+](=O)[O-])cc1)N1CCC(C(O)(c2ccc3c(c2)OCO3)c2ccc3c(c2)OCO3)CC1
dasatinib (0.02 µM): Cc1nc(Nc2ncc(C(=O)Nc3c(C)cccc3Cl)s2)cc(N2CCN(CCO)CC2)n1
dorsomorphin (2 µM): c1cc(-c2cnn3cc(-c4ccc(OCCN5CCCCC5)cc4)cnc23)ccn1
L-779450 (1 µM): Oc1cc(-c2nc(-c3ccccc3)[nH]c2-c2ccncc2)ccc1Cl
tanespimycin (0.01 µM): C=CCNC1=C2C[C@@H](C)C[C@H](OC)[C@H](O)[C@@H](C)/C=C(\C)[C@H](OC(N)=O)[C@@H](OC)/C=C\C=C(/C)C(=O)NC(=CC1=O)C2=O
FK866 (0.05 µM): O=C(/C=C/c1cccnc1)NCCCCC1CCN(C(=O)c2ccccc2)CC1
nilutamide (5 µM): CC1(C)NC(=O)N(c2ccc([N+](=O)[O-])c(C(F)(F)F)c2)C1=O
ABT-263 (2 µM): CC1(C)CCC(c2ccc(Cl)cc2)=C(CN2CCN(c3ccc(C(=O)NS(=O)(=O)c4ccc(N[C@H](CCN5CCOCC5)CSc5ccccc5)c(S(=O)(=O)C(F)(F)F)c4)cc3)CC2)C1
pazopanib (2 µM): Cc1ccc(Nc2nccc(N(C)c3ccc4c(C)n(C)nc4c3)n2)cc1S(N)(=O)=O
CHIR-265 (0.4 µM): Cn1c(Nc2ccc(C(F)(F)F)cc2)nc2cc(Oc3ccnc(-c4ncc(C(F)(F)F)[nH]4)c3)ccc21
AS-252424 (5 µM): O=C1NC(=O)/C(=C/c2ccc(-c3ccc(F)cc3O)o2)S1
TCS401 (8.33 µM): O=C(O)C(=O)Nc1sc2c(c1C(=O)O)CCNC2
SNS-032 (0.05 µM): CC(C)(C)c1cnc(CSc2cnc(NC(=O)C3CCNCC3)s2)o1
temozolomide (10 µM): Cn1nnc2c(C(N)=O)ncn2c1=O
cisplatin (8 µM): N.N.[Cl][Pt][Cl]
U73122 (2 µM): COc1ccc2c(c1)CCC1C2CCC2(C)C(NCCCCCCN3C(=O)C=CC3=O)CCC12 (configuration not stated)
GW441756 (2 µM): Cn1cc(/C=C2\C(=O)Nc3cccnc32)c2ccccc21
tamatinib (2 µM): COc1cc(Nc2ncc(F)c(Nc3ccc4c(n3)NC(=O)C(C)(C)O4)n2)cc(OC)c1OC

| Partner | RVH-421 | C32 | UACC-257 | A2058 | WM1716 | 501mel | COLO 800 | A375 | MeWo | WM3526 | LB2518-MEL | SK-MEL-28 |
|---|---|---|---|---|---|---|---|---|---|---|---|---|
| etoposide | 57.3 | 173 | 37.8 | 212 | 120 | - | 82.5 | 139 | 151 | 207 | 93.3 | 75.3 |
| LFM-A13 | 373 | 91.7 | 64.3 | 232 | 282 | - | 114 | 347 | 124 | 208 | - | 117 |
| GW441756 | 190 | 91.7 | 38.7 | 277 | 197 | - | 210 | 106 | 62.0 | 126 | - | 73.2 |
| dorsomorphin | 168 | 145 | 172 | 284 | 101 | - | 98.8 | 113 | 63.6 | 209 | - | 41.9 |
| AS-252424 | 302 | 83.7 | 74.4 | 246 | 183 | 121 | 187 | 251 | 135 | 655 | 106 | 157 |
| bortezomib | 162 | 2490 | 73.4 | 1790 | 16700 | - | 75.7 | 203 | 2220 | 2190 | 3520 | 220 |
| pazopanib | 78.4 | 91.0 | 24.3 | 196 | 232 | - | 80.7 | 177 | 102 | 533 | 90.9 | 296 |
| JZL184 | 140 | 81.3 | 36.9 | 190 | 592 | 142 | 129 | 239 | 150 | 108 | 42.0 | 64.9 |
| tamatinib | 97.6 | 194 | 186 | 239 | 300 | - | 102 | - | 113 | 314 | 125 | 92.3 |
| stibogluconate | 36.8 | 24.4 | 123 | 248 | 381 | - | 124 | 193 | 98.7 | 216 | 143 | 72.8 |
| U73122 | 64.1 | 193 | 235 | 168 | 277 | 187 | 471 | 250 | 121 | 167 | 206 | 89.2 |
| ABT-263 | 839 | 505 | 1040 | 307 | 3080 | - | 255 | 109 | 638 | 1420 | 93.6 | 2160 |
| CHIR-265 | 267 | 203 | 218 | 277 | 96.1 | - | 123 | 176 | 134 | 1300 | 134 | 303 |
| PD173074 | 148 | 95.3 | 78.2 | 180 | 123 | 171 | 290 | 149 | 114 | 139 | 229 | 166 |
| temozolomide | 122 | 306 | 74.1 | 560 | 1220 | - | 114 | 314 | 248 | 210 | 119 | 226 |
| perifosine | 120 | 219 | 66.9 | 308 | 323 | - | 165 | 949 | 176 | 335 | 129 | 127 |
| MK-2206 | 180 | 499 | 170 | 143 | 369 | - | 78.8 | 137 | 90.9 | 807 | 65.7 | 220 |
| tanespimycin | 138 | 816 | 38.8 | 369 | 124 | - | 73.2 | 52.9 | 327 | 810 | 44.3 | 176 |
| NVP-TAE684 | 91.4 | 101 | 48.3 | 220 | 461 | 118 | 247 | 475 | 106 | 143 | 87.3 | 77.9 |
| dasatinib | 236 | 396 | 317 | 946 | 1770 | - | 127 | 31.6 | 132 | 274 | 145 | 214 |
| L-779450 | 202 | 307 | 35.0 | 215 | 170 | 76.0 | 106 | 277 | 83.9 | 1000 | 104 | 108 |
| sunitinib | 42.4 | 24.1 | 84.6 | 168 | 49.5 | - | 44.2 | 185 | 114 | 566 | 157 | 153 |
| cisplatin | 230 | 230 | 339 | 201 | 334 | - | 585 | 272 | 102 | 167 | 71.1 | 124 |
| lestaurtinib | 69.6 | 148 | 51.9 | 180 | 39.9 | - | 328 | 78.4 | 194 | 226 | 290 | 54.1 |
| SNS-032 | 154 | 152 | 202 | 215 | 297 | - | 208 | - | 178 | 312 | 128 | 202 |
| BI-D1870 | 224 | 86.1 | 146 | 413 | 636 | 128 | 388 | 282 | 339 | 250 | 45.6 | 107 |
| nutlin-3 | 70.5 | 240 | 50.3 | 202 | 109 | - | 88.8 | 191 | 101 | 209 | 177 | 81.6 |
| tozasertib | 238 | 173 | 27.8 | 217 | 193 | - | 166 | 115 | 220 | 354 | 167 | 231 |
| nilutamide | 97.6 | 135 | 122 | 159 | 31.1 | - | 53.6 | - | 89.7 | 400 | 19.2 | 16.2 |
| FK866 | 286 | 40.7 | 77.2 | 143 | 113 | - | 144 | 117 | 94.8 | 214 | 707 | 60.3 |
| lenalidomide | 78.5 | 202 | 69.3 | 205 | 207 | - | 257 | 256 | 91.0 | 128 | 66.0 | 108 |
| TCS401 | 194 | 85.6 | 89.6 | 312 | 168 | 208 | 244 | 104 | 204 | 214 | 97.6 | 158 |

The first 3 entries again:

Partner	RVH-421	C32	UACC-257	A2058	WM1716	501mel	COLO 800	A375	MeWo	WM3526	LB2518-MEL	SK-MEL-28
etoposide	57.3	173	37.8	212	120	-	82.5	139	151	207	93.3	75.3
LFM-A13	373	91.7	64.3	232	282	-	114	347	124	208	-	117
GW441756	190	91.7	38.7	277	197	-	210	106	62.0	126	-	73.2